Reference: PubChem BioAssay AID1508597 (Cure First, 2020)

Screen: 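Survival screen with siRNA in ovarian cancer cells derived from patients, with or without rucaparib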 (primary screen)
Cell system: human ovarian carcinoma lines grown from tumours: OCI-P5x (papillary serous) and OCI-C5x (clear cell)
Reagent: siRNA pool against human genes, 1.25 pmol siRNA per well
Time to read-out: 72 h or 96 h, depending on the cell culture
Conditions: rucaparib 20 µM (about IC30) or vehicle, present until read-out
Measurement: 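Luminescent ATP-based viability assay read 72 or 96 h after transfection, depending on culture, given as normalised percent viability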
Scale: viability, normalised: higher = more viable cells remaining
Call rule: 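a well counts as a hit if its normalised viability is under 80 percent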
Meaning of the calls: active = viability under 80%; inactive = viability 80% or more
The deposit covers about 2,100 reagents; shown is an unselected part. 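Calls flag viability under 80% in either arm, not effects specific to rucaparib; the reference for percent is not stated.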 Some reagents were tested in more than one well and are listed for each. Reagent sequences are not shown. Not stated in the record: the 100% reference.

| gene | rucaparib or vehicle | cell line | technical replicate | viability, normalised (%) | activity call |
| --- | --- | --- | --- | --- | --- |
| GNAT1 | Rucaparib | OCI-C5x (clear cell) | 1 | 43.9 | active |
| GNAT1 | Rucaparib | OCI-C5x (clear cell) | 2 | 31.3 | active |
| GNAT1 | Rucaparib | OCI-C5x (clear cell) | 3 | 49.8 | active |
| GNAT1 | Rucaparib | OCI-P5x (serous) | 1 | 48.8 | active |
| GNAT1 | Rucaparib | OCI-P5x (serous) | 2 | 50.5 | active |
| GNAT1 | Rucaparib | OCI-P5x (serous) | 3 | 45.5 | active |
| GNAT1 | Vehicle | OCI-C5x (clear cell) | 1 | 37 | active |
| GNAT1 | Vehicle | OCI-C5x (clear cell) | 2 | 50.6 | active |
| GNAT1 | Vehicle | OCI-C5x (clear cell) | 3 | 42.4 | active |
| GNAT1 | Vehicle | OCI-P5x (serous) | 1 | 58.4 | active |
| GNAT1 | Vehicle | OCI-P5x (serous) | 2 | 57.2 | active |
| GNAT1 | Vehicle | OCI-P5x (serous) | 3 | 69 | active |
| FBXL19 | Rucaparib | OCI-C5x (clear cell) | 1 | 56 | active |
| FBXL19 | Rucaparib | OCI-C5x (clear cell) | 2 | 37.3 | active |
| FBXL19 | Rucaparib | OCI-C5x (clear cell) | 3 | 46.6 | active |
| FBXL19 | Rucaparib | OCI-P5x (serous) | 1 | 74.6 | active |
| FBXL19 | Rucaparib | OCI-P5x (serous) | 2 | 63.5 | active |
| FBXL19 | Rucaparib | OCI-P5x (serous) | 3 | 72.9 | active |
| FBXL19 | Vehicle | OCI-C5x (clear cell) | 1 | 52.1 | active |
| FBXL19 | Vehicle | OCI-C5x (clear cell) | 2 | 56.4 | active |
| FBXL19 | Vehicle | OCI-C5x (clear cell) | 3 | 53.2 | active |
| FBXL19 | Vehicle | OCI-P5x (serous) | 1 | 67.3 | active |
| FBXL19 | Vehicle | OCI-P5x (serous) | 2 | 78.3 | active |
| FBXL19 | Vehicle | OCI-P5x (serous) | 3 | 46.8 | active |
| NEK2 | Rucaparib | OCI-C5x (clear cell) | 1 | 75.2 | active |
| NEK2 | Rucaparib | OCI-C5x (clear cell) | 1 | 61.8 | active |
| NEK2 | Rucaparib | OCI-C5x (clear cell) | 2 | 66.6 | active |
| NEK2 | Rucaparib | OCI-C5x (clear cell) | 2 | 74.5 | active |
| NEK2 | Rucaparib | OCI-C5x (clear cell) | 3 | 76.5 | active |
| NEK2 | Rucaparib | OCI-C5x (clear cell) | 3 | 57.2 | active |
| NEK2 | Rucaparib | OCI-P5x (serous) | 1 | 109 | inactive |
| NEK2 | Rucaparib | OCI-P5x (serous) | 1 | 84 | inactive |
| NEK2 | Rucaparib | OCI-P5x (serous) | 2 | 59.7 | active |
| NEK2 | Rucaparib | OCI-P5x (serous) | 2 | 101 | inactive |
| NEK2 | Rucaparib | OCI-P5x (serous) | 3 | 79.7 | active |
| NEK2 | Rucaparib | OCI-P5x (serous) | 3 | 97.3 | inactive |
| NEK2 | Vehicle | OCI-C5x (clear cell) | 1 | 70 | active |
| NEK2 | Vehicle | OCI-C5x (clear cell) | 1 | 116 | inactive |
| NEK2 | Vehicle | OCI-C5x (clear cell) | 2 | 70.2 | active |
| NEK2 | Vehicle | OCI-C5x (clear cell) | 2 | 67.7 | active |
| NEK2 | Vehicle | OCI-C5x (clear cell) | 3 | 68.3 | active |
| NEK2 | Vehicle | OCI-C5x (clear cell) | 3 | 66.3 | active |
| NEK2 | Vehicle | OCI-P5x (serous) | 1 | 81.8 | inactive |
| NEK2 | Vehicle | OCI-P5x (serous) | 1 | 86.3 | inactive |
| NEK2 | Vehicle | OCI-P5x (serous) | 2 | 76.8 | active |
| NEK2 | Vehicle | OCI-P5x (serous) | 2 | 95.2 | inactive |
| NEK2 | Vehicle | OCI-P5x (serous) | 3 | 105 | inactive |
| NEK2 | Vehicle | OCI-P5x (serous) | 3 | 87.4 | inactive |
| PCDHB6 | Rucaparib | OCI-C5x (clear cell) | 1 | 70.3 | active |
| PCDHB6 | Rucaparib | OCI-C5x (clear cell) | 2 | 45.1 | active |
| PCDHB6 | Rucaparib | OCI-C5x (clear cell) | 3 | 38.5 | active |
| PCDHB6 | Rucaparib | OCI-P5x (serous) | 1 | 60.9 | active |
| PCDHB6 | Rucaparib | OCI-P5x (serous) | 2 | 63.5 | active |
| PCDHB6 | Rucaparib | OCI-P5x (serous) | 3 | 67.1 | active |
| PCDHB6 | Vehicle | OCI-C5x (clear cell) | 1 | 42.3 | active |
| PCDHB6 | Vehicle | OCI-C5x (clear cell) | 2 | 44.1 | active |
| PCDHB6 | Vehicle | OCI-C5x (clear cell) | 3 | 47 | active |
| PCDHB6 | Vehicle | OCI-P5x (serous) | 1 | 68.6 | active |
| PCDHB6 | Vehicle | OCI-P5x (serous) | 2 | 64.9 | active |
| PCDHB6 | Vehicle | OCI-P5x (serous) | 3 | 115 | inactive |
